Source: PMC5731924
No constants are given. Whether binding was seen depends on the method and setting. Binding seen in cells or lysates may run through a third protein. Some results given as binding are weak or reduced against the parent protein; the word gives no strength.

Molecular target: P53 tumor suppressor protein (human (endogenous in A549)) (UniProt P04637)
Test: co-IP; A549 lysate (10 mM HEPES pH 7.2, 142.5 mM KCl, 5 mM MgCl2, 1 mM EGTA, 0.2% NP-40), precleared, incubated with protein A-agarose beads linked with anti-TCTP, anti-P53 or control antibody; immunoblot

binding: binds
B1: Translationally controlled tumor protein (protein, UniProt P13693 1-172)
chain: MIIYRDLISHDEMFSDIYKIREIADGLCLEVEGKMVSRTEGNIDDSLIGGNASAEGPEGEGTESTVITGVDIVMNHHLQETSFTKEAYKKYIKDYMKSIKGKLEEQRPERVKPFMTGAAEQIKHILANFKNYQFFIGENMNPDGMVALLDYREDGVTPYMIFFKDGLEMEKC
